Consider five molecules from publication PMC3751566.

Protein sequences, listed by entry. Tags and fused reporters are not part of them.
UniProt P70452: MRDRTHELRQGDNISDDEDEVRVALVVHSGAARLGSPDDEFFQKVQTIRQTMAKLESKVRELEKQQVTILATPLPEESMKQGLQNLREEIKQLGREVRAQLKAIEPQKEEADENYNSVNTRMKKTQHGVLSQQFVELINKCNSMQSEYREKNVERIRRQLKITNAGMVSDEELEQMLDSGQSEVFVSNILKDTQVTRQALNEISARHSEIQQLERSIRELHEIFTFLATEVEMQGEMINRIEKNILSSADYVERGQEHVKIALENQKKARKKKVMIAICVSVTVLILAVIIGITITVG

The target in experiment [1] is syntaxin4 (mouse (endogenous in 3T3-L1 and PTP1B KO adipocytes)) (UniProt P70452). Nature of the experiment: co-IP; syntaxin4 immunoprecipitated from lysates of 3T3-L1 adipocytes (WT, Munc18c knockdown, reconstituted R, Y218/219F, Y521F), basal and insulin-stimulated; immunoblot for Munc18c and GLUT4. A general note: Immunoblotting shows a protein as a band on a membrane.

Experiment [2] concerns the target T1, Protein-tyrosine phosphatase 1B substrate-trapping mutant D181A (UniProt P18031).
T1 sequence: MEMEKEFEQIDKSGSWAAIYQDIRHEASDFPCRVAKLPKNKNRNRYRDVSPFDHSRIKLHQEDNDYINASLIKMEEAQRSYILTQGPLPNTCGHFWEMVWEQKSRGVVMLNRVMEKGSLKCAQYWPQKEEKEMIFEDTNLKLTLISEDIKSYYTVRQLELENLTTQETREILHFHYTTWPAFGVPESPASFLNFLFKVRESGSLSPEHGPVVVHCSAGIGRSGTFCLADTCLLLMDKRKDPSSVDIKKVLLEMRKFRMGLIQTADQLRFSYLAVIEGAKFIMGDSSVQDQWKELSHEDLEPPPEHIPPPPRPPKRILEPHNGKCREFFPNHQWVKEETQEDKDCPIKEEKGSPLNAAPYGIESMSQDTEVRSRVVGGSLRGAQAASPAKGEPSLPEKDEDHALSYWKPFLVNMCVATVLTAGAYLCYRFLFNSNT
Nature of the experiment: co-IP; PTP1B immunoprecipitated with FG6 from 3T3-L1 cells (WT or Munc18c knockdown reconstituted with Y/F mutants) transiently transfected with PTP1B WT or D/A, starved and insulin-stimulated, lysed in 1% NP40 buffer without orthovanadate; immunoblot for Munc18c.

Experiment [3] deals with T1, Protein-tyrosine phosphatase 1B substrate-trapping mutant D181A. Description: co-IP; as a3, insulin-stimulated cells with PTP1B D/A treated with pervanadate.
The target is the same in experiment [4]. Description: co-IP; PTP1B immunoprecipitated from lysates of PTP1B KO adipocytes reconstituted with PTP1B D/A, basal and insulin-stimulated; immunoblot for Munc18c; substrate trapping, 1% NP40 buffer without orthovanadate.
For a further experiment, the target named is T2, Munc18c Y521F (mouse) (UniProt Q60770).
T2 sequence: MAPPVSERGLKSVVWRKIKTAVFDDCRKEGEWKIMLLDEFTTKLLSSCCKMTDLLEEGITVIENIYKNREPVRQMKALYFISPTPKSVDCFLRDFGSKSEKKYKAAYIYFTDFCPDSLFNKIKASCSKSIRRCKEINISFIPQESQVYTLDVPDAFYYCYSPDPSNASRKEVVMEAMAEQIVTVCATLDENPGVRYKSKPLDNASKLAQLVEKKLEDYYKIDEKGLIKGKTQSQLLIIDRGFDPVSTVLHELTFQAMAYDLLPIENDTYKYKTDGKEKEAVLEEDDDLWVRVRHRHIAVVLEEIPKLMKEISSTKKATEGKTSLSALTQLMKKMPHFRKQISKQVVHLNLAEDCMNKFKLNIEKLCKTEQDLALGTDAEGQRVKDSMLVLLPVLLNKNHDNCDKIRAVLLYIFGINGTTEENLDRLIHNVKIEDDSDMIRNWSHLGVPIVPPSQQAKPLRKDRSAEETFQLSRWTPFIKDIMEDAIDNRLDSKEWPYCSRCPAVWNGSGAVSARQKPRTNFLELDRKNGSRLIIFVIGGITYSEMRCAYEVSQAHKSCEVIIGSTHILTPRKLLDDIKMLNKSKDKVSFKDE
Nature of the experiment: co-IP; Munc18c immunoprecipitated from NP-40 lysates of 3T3-L1 adipocytes (WT, Munc18c knockdown, reconstituted R, Y218/219F, Y521F), basal and insulin-stimulated; immunoblot for PTP1B and syntaxin4.

Experiment [5] has as its target T3, Munc18c (endogenous) (mouse (endogenous in 3T3-L1 and PTP1B KO adipocytes)) (UniProt Q60770).
T3 sequence: T2 sequence with F521Y
Described as above.

Experiment [6] has as its target T4, Munc18c Y218/219F (mouse) (UniProt Q60770).
T4 sequence: T2 sequence with Y218F, Y219F, F521Y
The experiment is described as above.

Substitutions are numbered along the chain they refer to. In names and notes the source's numbering stands. These are yes or no findings as the source states them, for the method shown. Binding seen in cells or lysates may run through a third protein. Some binding calls cover weakened binding; strength is not graded here.

B1: GLUT4 (protein, UniProt P14142 1-509)
chain: MPSGFQQIGSDDGEPPRQRVTGTLVLAVFSAVLGSLQFGYNIGVINAPQKVIEQSYNATWLGRQGPGGPDSIPQGTLTTLWALSVAIFSVGGMISSFLIGIISQWLGRKRAMLANNVLAVLGGALMGLANAAASYEILILGRFLIGAYSGLTSGLVPMYVGEIAPTHLRGALGTLNQLAIVIGILVAQVLGLESMLGTATLWPLLLALTVLPALLQLILLPFCPESPRYLYIIRNLEGPARKSLKRLTGWADVSDALAELKDEKRKLERERPMSLLQLLGSRTHRQPLIIAVVLQLSQQLSGINAVFYYSTSIFESAGVGQPAYATIGAGVVNTVFTLVSVLLVERAGRRTLHLLGLAGMCGCAILMTVALLLLERVPAMSYVSIVAIFGFVAFFEIGPGPIPWFIVAELFSQGPRPAAMAVAGFSNWTCNFIVGMGFQYVADAMGPYVFLLFAVLLLGFFIFTFLKVPETRGRTFDQISAAFRRTPSLLEQEVKPSTELEYLGPDEND
Regarding B1, in experiment [1], the binding result was “binds”.

B2: Munc18c (endogenous) (protein, UniProt Q60770 1-592)
chain: T2 sequence with F521Y
Take B2: the binding entry in experiment [2] was “binds”; in experiment [3], “no binding (condition: treatment with pervanadate)”; in experiment [4], “binds”.

B3: Munc18c Y521F (protein, UniProt Q60770 1-592)
chain: T2 sequence
For the molecule B3, the binding entry in experiment [2] is given as “binds”.

B4: Munc18c Y218/219F (protein, UniProt Q60770 1-592)
chain: T2 sequence with Y218F, Y219F, F521Y
In the case of B4, in experiment [2], the binding result is “binds”.

B5: PTP1B (endogenous in 3T3-L1 adipocytes) (enzyme, UniProt P35821 1-432)
chain: MEMEKEFEEIDKAGNWAAIYQDIRHEASDFPCKVAKLPKNKNRNRYRDVSPFDHSRIKLHQEDNDYINASLIKMEEAQRSYILTQGPLPNTCGHFWEMVWEQKSRGVVMLNRIMEKGSLKCAQYWPQQEEKEMVFDDTGLKLTLISEDVKSYYTVRQLELENLTTKETREILHFHYTTWPDFGVPESPASFLNFLFKVRESGSLSLEHGPIVVHCSAGIGRSGTFCLADTCLLLMDKRKDPSSVDIKKVLLEMRRFRMGLIQTADQLRFSYLAVIEGAKFIMGDSSVQDQWKELSREDLDLPPEHVPPPPRPPKRTLEPHNGKCKELFSSHQWVSEETCGDEDSLAREEGRAQSSAMHSVSSMSPDTEVRRRMVGGGLQSAQASVPTEEELSSTEEEHKAHWPSHWKPFLVNVCMATLLATGAYLCYRVCFH
Regarding B5, the binding entry (in the experiment with Munc18c Y521F (mouse); in experiment [5]; in experiment [6]) was “binds” each time.
